Primary screen of a compound library

Chains of the proteins cited; added tags and fusions are not shown. Residues count along the entry.
UniProt Q8IDJ8, 1-583: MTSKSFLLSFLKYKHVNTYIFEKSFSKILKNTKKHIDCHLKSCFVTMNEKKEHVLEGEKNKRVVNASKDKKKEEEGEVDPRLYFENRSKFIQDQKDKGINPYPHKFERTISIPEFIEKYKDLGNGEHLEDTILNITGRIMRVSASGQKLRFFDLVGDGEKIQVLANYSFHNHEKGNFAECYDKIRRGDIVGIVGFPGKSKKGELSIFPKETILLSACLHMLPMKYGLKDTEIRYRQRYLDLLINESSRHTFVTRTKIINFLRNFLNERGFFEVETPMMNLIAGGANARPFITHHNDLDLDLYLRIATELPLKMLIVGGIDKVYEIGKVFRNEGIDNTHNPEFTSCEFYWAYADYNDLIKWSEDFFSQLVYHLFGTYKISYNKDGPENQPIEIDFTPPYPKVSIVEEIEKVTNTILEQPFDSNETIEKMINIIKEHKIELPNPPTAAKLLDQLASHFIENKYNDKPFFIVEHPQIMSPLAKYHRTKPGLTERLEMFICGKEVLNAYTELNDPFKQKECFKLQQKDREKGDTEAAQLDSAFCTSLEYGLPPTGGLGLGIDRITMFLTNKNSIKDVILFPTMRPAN

A: 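Whole-parasite assay of Trypanosoma brucei over 72 hours; the read-out is not stated. Tested at 30 µM. The record gives no direction; compounds that gave an IC50 in retests scored well above the rest, so higher reads as stronger inhibition. Values scatter widely below zero; nearly all retest evidence comes from the higher of the two concentrations used. Size under these conditions: about 64,000 compounds, about 940 of them at 50% or above in at least one test.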
B: 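Lysine-tRNA ligase, Plasmodium falciparum 3D7 (UniProt Q8IDJ8). Enzyme assay of the cytosolic lysyl-tRNA synthetase in 384-well plates, read by luminescence. Concentration: 30 µM. Direction is inferred from only a few compounds that gave an IC50; most scored high, so higher reads as stronger inhibition. Of about 69,000 compounds tested this way, about 49 (0.071%) reached 50% or more in at least one test.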

Values are the deposited “Percent Effect”, in %. How 0% and 100% were set is not recorded. Most values in the screen are low, and negative values occur. This is an unselected part of the compounds tested. A dash means the value is not listed here; it may have been measured.

structure | A | B
CC(C)(O)c1cn(C2CCN(C(=O)CCC(F)(F)F)CC2)nn1 | - | 0.9122%
Cc1nonc1OCCNC(=O)CCCc1ccc(Cl)cc1 | -13.76% | 3.59%
COCCc1noc(CN2CCN(CC(O)c3ccccc3)CC2)n1 (centres undefined) | 14.69% | 3.92%
CCn1cc(CNc2ccc(F)c(N3CCCS3(=O)=O)c2)cn1 | -16.14% | 2.969%
N#CC1(NC(=O)c2ccc(-c3nc(C4CC4)n[nH]3)cc2)CC1 | -5.223% | 1.906%
CC(=O)Nc1ccc(F)c(S(=O)(=O)NC(C)(C)C)c1 | -3.35% | 8.247%
CCCc1cc(=O)[nH]c2nnc(SCC(=O)OC)n12 | -15.26% | 4.326%
Cc1noc(C(C)N2CCN(Cc3nnc(C4CC4)o3)CC2)n1 (centres undefined) | -0.7586% | 1.241%
CNC(=O)C1CCCCN1C(=O)Cc1csc(-c2ccc(C)o2)n1 (centres undefined) | -22.1% | 1.377%
CCN(C(=O)Nc1nncs1)C(C)c1cccc(OC)c1 (centres undefined) | 3.24% | 2.85%
CN(Cc1ccc(-n2cccn2)cc1)Cc1cnc(N(C)C)nc1 | 8.289% | 3.758%
CCOC(=O)N1CCN(C(=O)c2cc(-c3ccc(C)cc3)on2)CC1 | - | 6.731%
CCOc1ccc(Cl)c(C(=O)NC(C)C(N)=O)n1 (centres undefined) | -24.04% | 4.383%
Cc1ccnn1CCN1CCCC2(CCC(=O)N(C3CCCC3)C2)C1 (centres undefined) | -23.3% | -0.8764%
COCC1CN(C(=O)CS(C)(=O)=O)Cc2ncn(CC3CC3)c21 (centres undefined) | -30.37% | 1.551%
Cc1ccc(-c2ccnc(NC(C)c3c(C)n[nH]c3C)n2)c(C)n1 (centres undefined) | -39.41% | 3.645%
O=S1(=O)c2ccccc2C2(CCN(Cc3ccccc3)C2)N1CC1CC1 (centres undefined) | - | -4.85%
O=C(c1c[nH]c2ncccc12)N(Cc1ccco1)C1CCCC1 | -16.73% | 0.9765%
COC(=O)c1ccc(CNC(=O)Nc2ccc(=O)n(C)c2)cc1 | -4.832% | -0.5423%
CS(=O)(=O)c1ncc(CN2CCN3CCCC3C2)n1CC1CCCCC1 (centres undefined) | -12.58% | 0.674%
O=C(c1ccsc1)N1CCCC(c2cc(C(F)(F)F)[nH]n2)C1 (centres undefined) | 13.14% | 1.556%
Cc1noc(C)c1CCC(=O)NCC1(O)CCCN(c2ccccn2)C1 (centres undefined) | -11.7% | 1.86%
c1ccc(COC2CCN(Cc3cc4n(n3)CCCNC4)CC2)nc1 | 3.882% | 7.651%
O=C1COc2ccc(Cl)cc2CN1CC1CC1 | 2.163% | 2.296%
CCCc1c(C(=O)N2CCN(c3ncccn3)CC2)cnn1C | -34.36% | 5.822%
COCCOc1ccccc1CNCc1c(C)nn(C)c1N(C)C | -1.221% | 8.067%
CNC(=O)C1CN(Cc2c[nH]cn2)CCN(C2CCOCC2)C1 (centres undefined) | -23.65% | -2.868%
CC(C)[C@H]1CN(c2cnccn2)C[C@@H]1NC(=O)C1(C#N)CCOCC1 | -18.55% | 1.636%
CC(C)N(C(=O)c1ccnc(OCC(F)(F)F)c1)c1cccnc1 | -15.52% | 1.646%
COCC[C@]1(O)CCN(CC(=O)NCc2ccccc2C)C[C@H]1C | -58.23% | 2.645%
Cc1ccc(CNC(=O)NC2CCCN(c3ncccn3)C2)n1C (centres undefined) | -21.82% | 0.6401%
Cc1cc(C#N)ccc1S(=O)(=O)NCc1cnc(N(C)C)n1C | -22.56% | 6.301%
COc1ccc(F)c(CN2CCCC3(CCN(C4CCOCC4)C3)C2)c1 (centres undefined) | 8.544% | 5.916%
[H][C@@]12CCN(C(=O)CC(C)C)C[C@@]1([H])O[C@@H](c1nccs1)C2 | -21.2% | -
O=C(NC[C@H]1C[C@@H]2CCN1C[C@@H]2CN1CCCCC1)Nc1ccsc1 | - | -1.969%
O=C(O)C(F)(F)F.O=C(c1cnccn1)N1CCCC2(CCN(Cc3ccc(F)cc3)C2)C1 (centres undefined) | -111.8% | -
Cc1cnc(N2CC3(CCN(C(=O)c4ccoc4)C3)C2)nc1 | -52.9% | -2.626%
CN(C)C(=O)CN1CCOCC2(CCN(CC3CCOCC3)CC2)C1 | - | -0.08533%
c1cnnc(N2CCCC2CNc2nc3ccccc3o2)c1 (centres undefined) | 11.73% | 3.895%
CCS(=O)(=O)N1Cc2c(Cn3ccnc3)nn(C)c2C1 | - | 0.5875%
CCCn1cc(Cl)c(C(=O)N2C[C@H]3C[C@H](OC)C[C@H]3C2)n1 | - | -1.281%
CNS(=O)(=O)CCCN1CCCCCC1c1ccc(C)o1 (centres undefined) | 10.83% | 0.4292%
Fc1cnc(N2CC[C@@H](N3CCOCC3)[C@@H]2Cc2ccncc2)nc1.O=C(O)C(F)(F)F.O=C(O)C(F)(F)F | -61.04% | -
Cc1cncc(Oc2ccc(CN)cc2)n1 | - | 6.394%
[H][C@@]12C[C@H](C(=O)N3CCCC3)[C@@]([H])(CN(C(=O)NCc3ccccc3)C1)O2 | -12.52% | -
COCCC(=O)N1CCCC(CCc2ccc(F)c(F)c2)C1 (centres undefined) | -17.74% | 5.439%
Cc1nnc(SCCCNC(=O)Cc2ccc3c(c2)OCO3)s1 | -40.57% | -3.624%
CCOC(C)c1nc(CN2CCN(CC(F)F)CC2)cs1 (centres undefined) | -45.71% | 3.644%
Cn1cc(CN2CCc3onc(COc4cccnc4)c3C2)cn1 | - | -6.052%
O=C(NCc1cc[nH]n1)NCC(c1ccccc1)N1CCOCC1 (centres undefined) | - | -1.481%
CS(=O)(=O)Cc1ccccc1NCc1cc(Cl)ccc1Cl | 6.549% | 6.644%
CC(NCCCn1ccnc1)c1ccc(N2CCOC2=O)cc1 (centres undefined) | -94.01% | -6.524%
COc1cccc(CNCc2c(C)nn(C)c2N(C)C)c1 | - | 1.134%
O=C(O)C(F)(F)F.[H][C@@]12C[C@@H](C)O[C@]1([H])CN(S(=O)(=O)c1c(C)nn(C)c1C)C2 | -16.35% | -
COc1ccc(S(=O)(=O)Nc2cccnc2-n2cncn2)cc1C | -48.7% | 6.345%
Cc1nnc(C2CCN(C(=O)c3ccc(-n4cccc4)cc3)CC2)s1 | -0.6612% | 6.075%
CCN(Cc1nonc1C)C(=O)Cn1nc(C(F)(F)F)cc1C | 0.2042% | 2.027%
O=C(O)C(F)(F)F.c1ccc(CN2CCc3c(CNc4nccs4)n[nH]c3C2)nc1 | -34.93% | -
Cc1nn(C)c(C)c1S(=O)(=O)N(C)Cc1nn(C)c(Cl)c1Cl | 19.32% | -5.629%
O=C(NCCOCC(F)(F)F)c1ccc(-c2ccco2)[nH]c1=O | -18.45% | 2.553%
Cc1cncc(C(=O)N2CCCC(O)(CN3CCCC3)C2)c1 (centres undefined) | 10.54% | 0.2324%
Cc1nc2c(c(N[C@H](C(N)=O)C(C)C)n1)Cc1ccccc1OC2 | -56.57% | 3.517%
CCc1cc(C(C)Nc2nc(-c3cccnc3)nc3c2CNC3)on1 (centres undefined) | -52.86% | -0.4218%
CCn1cnnc1CNC(=O)N1CCN(c2ccc(OC)cc2)CC1 | -19.76% | 0.6534%
CCN(Cc1cccs1)S(=O)(=O)N(C)C(C)C | -51.69% | 1.069%
COCC(=O)N1CCC2(CCC2N(C)Cc2ccco2)CC1.O=C(O)C(F)(F)F (centres undefined) | -13.59% | -
CCCNC(=O)Cn1cc(-c2ccccc2)cn1 | 47.77% | 6.242%
O=C(CCc1cn[nH]c1)N1C[C@@H](CN2CCCCCC2)[C@@H](CO)C1 | 7.173% | 1.208%
Cc1nn(Cc2ccc(C(=O)NCCCN3CCOCC3)o2)c(C)c1Cl | -5.11% | -2.151%
Cc1nc(Nc2nnc(C)s2)cc(C2CCCN2c2ccncc2)n1 (centres undefined) | 18.84% | 1.194%

Some entries from above, unchanged:

structure	A	B
Cc1nnc(SCCCNC(=O)Cc2ccc3c(c2)OCO3)s1	-40.57%	-3.624%
COc1ccc(F)c(CN2CCCC3(CCN(C4CCOCC4)C3)C2)c1 (centres undefined)	8.544%	5.916%
CNC(=O)C1CCCCN1C(=O)Cc1csc(-c2ccc(C)o2)n1 (centres undefined)	-22.1%	1.377%
Cc1nonc1OCCNC(=O)CCCc1ccc(Cl)cc1	-13.76%	3.59%
COc1cccc(CNCc2c(C)nn(C)c2N(C)C)c1	-	1.134%
O=C(c1ccsc1)N1CCCC(c2cc(C(F)(F)F)[nH]n2)C1 (centres undefined)	13.14%	1.556%

Source: ChEMBL document CHEMBL3988442, “University of Dundee, Small-Polar-MMV Screening Library” (2021).